From patent US10494332B2, “Protein tyrosine phosphatases or SHP2 inhibitors and uses thereof” (Indiana University Research and Technology Corporation, priority 2015, dated 2019)
Some entries share one result that the patent states for a list of compounds.

Biological target: T1, LMWPTP (Homo sapiens, UniProt P24666)
T1 sequence (P24666 1-158): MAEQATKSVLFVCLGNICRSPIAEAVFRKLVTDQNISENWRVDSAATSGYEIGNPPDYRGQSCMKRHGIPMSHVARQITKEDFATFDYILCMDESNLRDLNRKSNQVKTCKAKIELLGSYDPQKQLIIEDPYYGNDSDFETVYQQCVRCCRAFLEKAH
Assay: PTP inhibition assay (pNPP)
Assay type: biochemical

SMILES | Fold selectivity for LMWPTP over other PTPs
O=C(Nc1nc2ccc(O[N+](=O)[O-])cc2s1)C(c1ccccc1)S(=O)(=O)O (centres unmarked) [Compound L319N15-07] | more than 100 fold
O=C(CS(=O)(=O)O)Nc1nc2ccc([N+](=O)[O-])cc2s1 [Compound L335N15-07] | more than 100 fold
